Measured values reported in patent US20100022475A1, “NOVEL TRIAZOLOPYRIMIDINE DERIVATIVES” (priority 2004, published 2010).
Some of these results come from one statement about several compounds together.

System: Uncinula necator
Test: Uncinula necator / grape / preventive (powdery mildew)
Settings: 200 ppm, spray, grape seedlings cv. Gutedel, assessed 7 days after inoculation

C[Si]1(CNc2c(-c3c(F)cc(F)cc3F)c(Cl)nc3ncnn23)CCCC1 [I.d.081, [5-chloro-6-(2,4,6-trifluoro-phenyl)-[1,2,4]triazolo[1,5-a]pyrimidin-7-yl]-(1-methyl-silolan-1-ylmethyl)-amine]
inhibit fungal infestation: ≥ 80%
